Source: paper PMC6273433, “Design, Synthesis and Cytotoxicity of Novel Dihydroartemisinin-Coumarin Hybrids via Click Chemistry” (Molecules, 2016)
pIC50: −log10 of the molar value. Like-named read-outs stand apart in the source and are kept apart here.

What was measured:
Type in all cases: cell-based
[1] = tested on: HT-29 (human colon carcinoma cell line, overexpresses high amounts of CA IX); assay: MTT cytotoxicity assay, HT-29 under anoxia or normoxia
Procedure: (§1) We focused our attention on the cytotoxicity of the four series of newly-synthesized compounds (10a–e, 11a–e, 12a–e, and 13a–e) under normoxic or anoxic conditions.
(§2) The data was calculated by the Logit method and presented as IC50 values in Table 1.
(§3) All of the newly-synthesized compounds were screened for in vitro cytotoxicity by MTT assay. The exponentially-growing MRC-5, HCT-116, MDA-MB-231, and HT-29 cells were allowed to grow until 80% confluency, the culture medium was discarded, digested with trypsin, separated centrifugally, then fresh culture medium was added and blown gently into single-cell suspension. Then, the cell suspension was seeded into each well of 96-well microculture plates at a concentration of 1.5 × 10^3–3 × 10^3 cells/well.
(§4) The cells were incubated with 50 μL of 2 mg/mL MTT solution for 4 h in a humidified incubator. The supernatant was discarded, and the media were then replaced with 200 μL of dimethyl sulfoxide to dissolve the purple colored formazan crystals formed in the wells, and their absorbances were measured at 492 nm with a microplate reader (Synergy-HT, BioTek Instruments, Winooski, VT, USA); 200 μL DMSO was set as the blank control.
(§5) The anoxia condition was achieved by placing cells in a sealed hypoxia incubator chamber (Catalog Number 27310, Stemcell Technologies, Inc., Vancouver, BC, Canada) filled with 5% CO2 and 95% N2.

[2] = tested on: MDA-MB-231 (human breast carcinoma cell line, CA IX negative); assay: MTT cytotoxicity assay, MDA-MB-231 under anoxia or normoxia
Procedure: as §1, §2, §3, §4, §5

[3] = tested on: MRC-5 (human fetal lung fibroblast cells, normal lung cell); assay: MTT cytotoxicity assay, MRC-5 normal cells; conditions: MRC5, MRC-5, normoxia, 96 h MTT
Procedure: as §1, §2, §3
as §4, with “After incubation for 24 h at 37 °C, the four lines of cells were treated with varying concentrations (100, 50, 25, 12.5, and 6.25 μM) of DOX, AAZ, or the derivatives for 96 h. The cells” for “The cells”

[4] = tested on: HCT-116 (human colorectal cancer cell line); assay: MTT cytotoxicity assay, HCT-116 under anoxia or normoxia
Procedure: as §1, §2, §3, §4, §5

Measured: pIC50

CC(=O)Nc1nnc(S(N)(=O)=O)s1 [AAZ, acetazolamide, reference compound]
< 4.00: [1]; HT-29, anoxia 24 h then normoxia 72 h, MTT, read-out: IC50 HT-29 Anoxia | [1]; HT-29, normoxia, 96 h MTT, read-out: IC50 HT-29 Normoxia | [2]; MDA-MB-231, anoxia 24 h then normoxia 72 h, MTT, read-out: IC50 MDA-MB-231 Anoxia | [2]; MDA-MB-231, normoxia, 96 h MTT, read-out: IC50 MDA-MB-231 Normoxia | [3] | [4]; HCT-116, anoxia 24 h then normoxia 72 h, MTT, read-out: IC50 HCT-116 Anoxia | [4]; HCT-116, normoxia, 96 h MTT, read-out: IC50 HCT-116 Normoxia
